This assay in a line: qHTS Assay for Lipid Storage Modulators in Drosophila S3 Cells.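 For cell number change: cells counted by Cell Tracker Red CMTPX staining in the red channel.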 The conditions noted are these: BODIPY lipid droplet fluorescence, 18-24 h; for cell number change: measured here: cell count max response, cells fed with added oleic acid. The method in brief: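 Drosophila S3 cells loaded with oleic acid (400 uM, as added) and compounds at several concentrations; lipid droplets imaged by 488-nm laser-scanning cytometry, 500–530 nm intensity and object ratio to cell channel. Percent activity normalized to 20 uM Triacsin C.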

Setting [1] is: measured here: cell number channel AC50, cells fed with added oleic acid.
Setting [2] is: measured here: lipid fluorescence (Fed channel) AC50, cells fed with added oleic acid.

By AC50 is commonly meant the midpoint of the concentration-response curve, whichever way the signal moves. Read a low AC50 as greater potency.

Some of the results follow. The main result of the screen is listed elsewhere. These columns were measured beside it and carry no call. The list favours compounds with an active or inconclusive main result. Potencies come from curve fits of mixed quality, noted in brackets.

As for `Cc1ccc(OCCOC(=O)CN2C(=O)NC3(CCCC3)C2=O)cc1`, the cell number change was -48.2%. Moreover, the AC50 under setting [1] was 14.6 µM [falling, partial curve]. Moreover, the AC50 under setting [2] is 0.00411 µM [falling, full curve, poor fit].

Consider `CC(OC(=O)CCc1nc2ccccc2[nH]c1=O)c1ccccc1` (centres undefined), for which the cell number change is 16.1%. Under setting [2], the AC50 is 3.66 µM [rising, full curve].

Consider `CCC(C(=O)N1CCOCC1)n1c2ccccc2c2nc(=O)cc(C)n21` (centres undefined), for which the cell number change stood at 14.2%.

As to `O=C(OCCN1CCCCC1)c1c[nH]c2ccccc12`, the cell number change was -17.1%.

For the compound `COc1ccc(/C=C/C(=O)Nc2ccc(-c3nnc4n3CCCCC4)cc2)c(OC)c1`, the cell number change was -2.2%. Further, the AC50 under setting [2] is 29.1 µM [falling, single point].

On to `Cc1ccc2c(c1)C1CN(C)CCC1N2CC(=O)N(C)c1ccccc1` (centres undefined), for which the cell number change amounted to 5.78%. Under setting [1], the AC50 is 3.66 µM [rising, single point].

As for `N#CCC(=O)N/N=C\c1ccccc1OC/C=C/c1ccccc1`, the cell number change was 5.66%.

Take `CCc1ccc(S(=O)(=O)N(C(=O)c2ccncc2)c2ccc(OC(=O)c3ccncc3)cc2)cc1`: the AC50 under setting [2] is 9.2 µM [falling, partial curve].

As for `COc1ccc(NC(=S)N(CCC(C)C)C2CCN(C(C)C)CC2)cc1`, the cell number change was -29.8%.

Consider `Cc1ccc(NS(=O)(=O)c2cccc(C(=O)NCC(c3cccs3)N(C)C)c2)cc1` (centres undefined), for which the AC50 under setting [1] is 0.58 µM [rising, single point] and the AC50 under setting [2] was 0.651 µM [rising, single point].

With `CCCCc1c(O)nc(SCC(=O)N2CCCCCC2)[nH]c1=O`, the cell number change is 0.901%. The AC50 under setting [2] was 6.51 µM [rising, single point].

As to `Cc1nn(-c2ccccc2)c(Cl)c1/C=N/Nc1nc2ccccc2n1C`, the AC50 is 3.26 µM [rising, single point] under setting [1] and 4.11 µM [rising, partial curve] under setting [2].

Regarding `CCCCn1c(N)c(N(CCOC)C(=O)c2ccc(F)c(S(=O)(=O)N3CCOCC3)c2)c(=O)[nH]c1=O`, the cell number change is 3.11%. In addition, under setting [2], the AC50 is 29.1 µM [falling, single point].

Take `NC(=O)C1CCN(C(=O)c2cccc3ccccc23)CC1`: the cell number change turned out to be 10.6%. The AC50 under setting [2] is 0.00461 µM [rising, full curve, poor fit].

On to `O=C(CCn1c(=O)oc2ccccc21)Nc1cccc(Br)c1`, for which the cell number change turned out to be 9.27%.

`CNc1oc(-c2cccc3ccccc23)nc1C#N`: the cell number change was -20.7%. The AC50 under setting [2] is 16.4 µM [rising, single point].

For `CCn1cc(C(=O)NCCOC)c(=O)c2ccc(C)nc21`, the cell number change was -9.71%.

For `Fc1ccc(OCCCn2ccnc2)cc1`, the cell number change worked out at 12.6%. Moreover, the AC50 under setting [2] was 0.184 µM [rising, full curve, poor fit].

Consider `Cc1cc(C)c2c(CC(=O)N(CCC#N)Cc3cccnc3)coc2c1`, for which the AC50 under setting [1] is 0.116 µM [rising, partial curve] and the AC50 under setting [2] was 0.146 µM [rising, full curve, poor fit].

On to `COC(=O)Nc1ccc(S(=O)(=O)N2CCC(C(=O)N3CCCC(C)C3)CC2)cc1` (centres undefined), for which the cell number change is -18.4%. In addition, under setting [1], the AC50 was 6.51 µM [falling, single point]. In addition, under setting [2], the AC50 was 6.51 µM [falling, single point].

Consider `O=C(Cn1nnc(-c2cc(C(F)(F)F)cc(C(F)(F)F)c2)n1)NNC(=S)Nc1ccc(Cl)cc1`, for which the cell number change is -42.5%. Besides, the AC50 under setting [1] is 13 µM [falling, partial curve]. In addition, the AC50 under setting [2] is 18.4 µM [falling, single point].

`COc1ccc(C(=O)CC(=O)C(=O)Nc2cc([N+](=O)[O-])ccc2OC)cc1`: the cell number change was 31.9%. Further, the AC50 under setting [1] was 18.4 µM [rising, partial curve, poor fit]. In addition, the AC50 under setting [2] was 29.1 µM [rising, single point].

For `COc1ccc2nc3oc(C(=O)N4CCN(c5cccc(C(F)(F)F)c5)CC4)cc3cc2c1`, the cell number change worked out at 23%. For the same compound, the AC50 under setting [2] was 29.1 µM [rising, single point].

For the compound `O=C(C(=O)N1CCCc2ccccc21)N1CCCc2ccccc21`, the cell number change was -16.7%. For the same compound, the AC50 under setting [2] was 3.26 µM [rising, single point].

Regarding `CCCC1C2C(=O)N(c3ccc(OC)cc3)C(=O)C2ON1c1ccccc1` (centres undefined), the cell number change is -13.7%. Further, the AC50 under setting [2] is 29.1 µM [falling, single point].

`Cc1occc1-c1nnc(SCC(=O)NCCc2ccccc2)n1C(C)c1ccccc1` (centres undefined): the cell number change is -26.4%. The AC50 under setting [2] was 2.91 µM [rising, full curve].

`O=C(OCC(=O)N1CCCc2ccccc21)c1ccc(S(=O)(=O)C(F)F)cc1`: the cell number change was 12.5%.

As for `CC(C)Oc1ccc(C(=O)Nc2ccc(S(=O)(=O)N3CCN(C)CC3)cc2)cc1`, the cell number change is -22.5%. In addition, under setting [2], the AC50 was 29.1 µM [falling, single point].

As for `Cc1ccc(CNCC(O)(c2ccc(F)cc2)c2ccc(F)cc2)cc1`, the cell number change is -67.4%. Moreover, under setting [1], the concentration at half-maximal activity (AC50) was 23.1 µM [falling, single point]. The AC50 under setting [2] was 29.1 µM [falling, single point].

For `CCNC(=O)N1CCNC(=O)C1CC(=O)Nc1ccc(C(=O)OCC)cc1` (centres undefined), the cell number change was -27%. Also, under setting [1], the AC50 was 0.92 µM [falling, full curve, poor fit]. Besides, the AC50 under setting [2] was 0.82 µM [falling, full curve].

As for `CCOc1ccccc1N1CCN(C(=S)NCc2ccc(Cl)cc2)CC1`, the cell number change was -32.5%. Under setting [1], the AC50 is 0.651 µM [falling, full curve]. Also, the AC50 under setting [2] is 20.6 µM [falling, partial curve].

In the case of `CC(Oc1ccccc1)c1ccn[nH]1` (centres undefined), the cell number change was 39.5%. Besides, under setting [1], the AC50 is 16.4 µM [rising, partial curve, poor fit]. The AC50 under setting [2] was 11.6 µM [rising, partial curve].

As for `Cc1ccccc1N1CCN(C2CCCN(C(=O)c3cn4cccc(C)c4n3)C2)CC1` (centres undefined), the cell number change was -13.7%.

`CCc1ccc(NC(=O)C2CCN(S(=O)(=O)c3ccc4[nH]c(=O)ccc4c3)CC2)cc1`: the cell number change stood at 71.8%. Further, the AC50 under setting [1] was 29.1 µM [rising, single point].

For the compound `Cc1ccc(C)c(N2N=C(C(=O)Nc3cccnc3)CCC2=O)c1`, the cell number change is -0.627%. Also, the AC50 under setting [1] was 0.00461 µM [falling, full curve, poor fit]. Also, the AC50 under setting [2] was 0.58 µM [rising, full curve, poor fit].

For `COCCn1c(SCC(=O)NC2CCCCC2C)nnc1-c1ccncc1` (centres undefined), the cell number change was -15.2%. Moreover, under setting [2], the AC50 was 6.51 µM [rising, single point].

Regarding `CC1Sc2ccc(C(=O)Nc3cc(S(C)(=O)=O)ccc3Cl)cc2NC1=O` (centres undefined), the cell number change turned out to be 2.27%. Also, the AC50 under setting [2] is 29.1 µM [rising, single point].

Values taken from PubChem BioAssay AID2685 (National Center for Advancing Translational Sciences (NCATS), 2010).
